± gives the standard deviation of the averaged measurements. Small differences around the control level are noise.
Key:
Assay in all cases: level (log10 ratio to DMSO vehicle control); higher = higher biomarker level / cell amount than vehicle control
[1] = compound: O=S(=O)(O)CCC(F)(F)C(F)(F)C(F)(F)C(F)(F)C(F)(F)C(F)(F)C(F)(F)C(F)(F)F [8:2 Fluorotelomer sulfonic acid]; settings: in DMSO
Procedure: (§1)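 BioMAP Diversity Plus panel of 12 human primary cell co-culture systems (3C, 4H, LPS, SAg, BT, BF4T, BE3C, CASM3C, HDF3CGF, KF3CT, MyoF, Mphg). Compounds were added 1 h before stimulation and left for 24 h (MyoF 48 h; BT 72 h for soluble read-outs or 6 d for IgG). Biomarkers were read by ELISA, cytotoxicity by SRB, PBMC viability and proliferation by Alamar Blue. Each well value was divided by the mean of 8 DMSO control wells on the same plate and log10 transformed; duplicate blinded samples were tested at 4 concentrations.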

[2] = compound: CCCCCCCCC(F)(F)C(F)(F)C(F)(F)C(F)(F)C(F)(F)C(F)(F)F [1-(Perfluorohexyl)octane]; settings: in DMSO
Procedure: as §1

[3] = compound: OCCC(F)(F)C(F)(F)C(F)(F)C(F)(F)C(F)(F)C(F)(F)F [6:2 Fluorotelomer alcohol]; settings: 2200 nM; in DMSO
Procedure: as §1

[4] = compound: O=C(O)C(F)(F)C(F)(F)C(F)(F)OC(F)(F)F [Perfluoro(4-methoxybutanoic) acid]; settings: 2200 nM; in DMSO
Procedure: as §1

[5] = compound: O=C(O)C(F)(F)C(F)(F)C(F)(F)C(F)(F)C(F)(F)C(F)(F)C(F)(F)C(F)(F)C(F)(F)C(F)F [11-H-Perfluoroundecanoic acid]; settings: 2200 nM; in DMSO
Procedure: as §1

[6] = compound: CC(C)(C)C(=O)CC(=O)C(F)(F)C(F)(F)C(F)(F)F [(Heptafluorobutanoyl)pivaloylmethane]; settings: 2200 nM; in DMSO
Procedure: as §1

[7] = compound: O=C(O)C(F)(F)C(F)(F)C(F)(F)C(F)(F)C(=O)O [Octafluoroadipic acid]; settings: 2200 nM; in DMSO
Procedure: as §1

[8] = compound: O=C(O)C(F)(F)C(F)(F)C(F)(F)C(F)(F)C(F)(F)C(F)(F)F [Perfluoroheptanoic acid]; settings: in DMSO
Procedure: as §1

[9] = compound: O=C(O)C(F)(F)C(F)(F)C(F)(F)C(F)(F)F [Perfluoropentanoic acid]; settings: in DMSO
Procedure: as §1

[10] = compound: CCN(CCO)S(=O)(=O)C(F)(F)C(F)(F)C(F)(F)C(F)(F)C(F)(F)C(F)(F)C(F)(F)C(F)(F)F [N-Ethyl-N-(2-hydroxyethyl)perfluorooctanesulfonamide]; settings: in DMSO
Procedure: as §1

[11] = compound: OCC(F)(F)C(F)(F)C(F)(F)F [1H,1H-Heptafluorobutanol]; settings: 2200 nM; in DMSO
Procedure: as §1

[12] = compound: Cc1ccc(S(=O)(=O)OCC(F)(F)C(F)(F)C(F)(F)C(F)(F)C(F)(F)C(F)F)cc1 [1H,1H,7H-Perfluoroheptyl 4-methylbenzenesulfonate]; settings: 2200 nM; in DMSO
Procedure: as §1

[13] = compound: NCC(F)(F)C(F)(F)C(F)(F)C(F)(F)C(F)(F)C(F)(F)C(F)(F)F [1H,1H-Perfluorooctylamine]; settings: 2200 nM; in DMSO
Procedure: as §1

[14] = compound: NC(=O)C(F)(F)C(F)(F)C(F)(F)F [Heptafluorobutyramide]; settings: 2200 nM; in DMSO
Procedure: as §1

[15] = compound: FC(F)(F)C(F)(F)C(F)(F)C(F)(F)C(F)(F)C(F)(F)CC1CO1 [3-(Perfluorohexyl)-1,2-epoxypropane]; settings: 2200 nM; in DMSO
Procedure: as §1

[16] = compound: CN(C(=O)C(F)(F)C(F)(F)C(F)(F)F)[Si](C)(C)C [N-Methyl-N-trimethylsilylheptafluorobutyramide]; settings: 2200 nM; in DMSO
Procedure: as §1

| Test System | level (log10) ([1]; 2200 nM) | level (log10) ([1]; 6700 nM) | level (log10) ([1]; 20000 nM) | level (log10) ([1]; 60000 nM) | level (log10) ([2]; 740 nM) | level (log10) ([2]; 2200 nM) | level (log10) [3] | level (log10) [4] | level (log10) [5] | level (log10) [6] | level (log10) [7] | level (log10) ([8]; 2200 nM) | level (log10) ([8]; 6700 nM) | level (log10) ([8]; 20000 nM) | level (log10) ([8]; 60000 nM) | level (log10) ([9]; 2200 nM) | level (log10) ([9]; 6700 nM) | level (log10) ([9]; 20000 nM) | level (log10) ([9]; 60000 nM) | level (log10) ([10]; 2200 nM) | level (log10) ([10]; 6700 nM) | level (log10) ([10]; 20000 nM) | level (log10) [11] | level (log10) [12] | level (log10) [13] | level (log10) [14] | level (log10) [15] | level (log10) [16] |
| --- | --- | --- | --- | --- | --- | --- | --- | --- | --- | --- | --- | --- | --- | --- | --- | --- | --- | --- | --- | --- | --- | --- | --- | --- | --- | --- | --- | --- |
| BF4T:CD106/VCAM-1 | 0.0245 ± 0.052 | 0.0035 ± 0.035 | -0.0285 ± 0.03 | -0.041 ± 0.0028 | 0.004 ± 0.051 | -0.009 ± 0.037 | 0.007 ± 0.098 | 0.0275 ± 0.057 | -0.0975 ± 0.00071 | 0.008 ± 0.067 | 0.0065 ± 0.06 | -0.0045 ± 0.05 | -0.0015 ± 0.029 | 0.0115 ± 0.015 | 0.029 ± 0.0099 | 0.007 ± 0.068 | -0.0425 ± 0.036 | -0.046 ± 0.016 | 0.018 ± 0.04 | 0.0395 ± 0.03 | -0.039 ± 0.0085 | -0.0615 ± 0.0092 | 0.035 ± 0.031 | 0.0135 ± 0.047 | 0.0165 ± 0.044 | 0.0255 ± 0.052 | 0.008 ± 0.03 | 0.0055 ± 0.0035 |
| BF4T:CXCL8/IL-8 | 0.008 ± 0.0071 | 0.0015 ± 0.0035 | -0.0105 ± 0.0078 | -0.0055 ± 0.0078 | 0.0025 ± 0.005 | -0.0005 ± 0.012 | 0.0255 ± 0.046 | 0.0425 ± 0.098 | 0.04 ± 0.04 | 0.062 ± 0.075 | 0.043 ± 0.016 | 0.028 ± 0.0014 | 0.017 ± 0.028 | 0.0155 ± 0.013 | 0.0145 ± 0.036 | -0.013 ± 0.018 | -0.0345 ± 0.013 | -0.0295 ± 0.013 | -0.0105 ± 0.035 | 0.0115 ± 0.066 | -0.015 ± 0.014 | -0.004 ± 0.0014 | 0.082 ± 0.034 | 0.0125 ± 0.005 | 0.036 ± 0.054 | 0.033 ± 0.047 | 0.0035 ± 0.029 | 0.0085 ± 0.029 |
| BF4T:IL-1alpha | 0.0095 ± 0.021 | 0.004 ± 0.016 | -0.01 ± 0.014 | 0.0065 ± 0.018 | 0.0225 ± 0.03 | -0.002 ± 0.0057 | 0.005 ± 0.0085 | 0.01 ± 0.02 | 0.0405 ± 0.05 | 0.008 ± 0.023 | 0.0215 ± 0.015 | 0.003 ± 0.0028 | -0.0085 ± 0.023 | -0.0015 ± 0.005 | 0.013 ± 0.0099 | 0.008 ± 0.02 | -0.016 ± 0.0085 | -0.005 ± 0.0071 | 0.0155 ± 0.046 | 0.023 ± 0.023 | 0.008 ± 0.016 | -0.0175 ± 0.015 | -0.002 ± 0.031 | 0.0185 ± 0.047 | -0.0085 ± 0.021 | 0.0135 ± 0.019 | 0.012 ± 0.0014 | 0.0155 ± 0.023 |
| BF4T:Keratin 8/18 | 0.0085 ± 0.042 | 0.004 ± 0.0099 | -0.0005 ± 0.018 | 0.0245 ± 0.0078 | 0.013 | 0.006 ± 0.0028 | 0.008 ± 0.014 | 0.0175 ± 0.028 | -0.031 ± 0.016 | 0.015 ± 0.042 | 0.0125 ± 0.04 | 0.014 ± 0.013 | -0.0285 ± 0.0092 | -0.018 ± 0.0057 | 0.0045 ± 0.026 | 0.0235 ± 0.015 | 0.0055 ± 0.0064 | -0.002 ± 0.0085 | 0.0055 ± 0.03 | 0.0245 ± 0.026 | -0.002 ± 0.0014 | -0.0005 ± 0.0021 | -0.0135 ± 0.064 | 0.009 ± 0.025 | 0.0015 ± 0.053 | 0.012 ± 0.028 | 0.016 ± 0.0042 | -0.01 ± 0.051 |
| BF4T:MMP-1 | 0.011 ± 0.018 | 0.005 ± 0.0085 | -0.002 ± 0.0071 | 0.0035 ± 0.0021 | -0.001 ± 0.045 | -0.0015 ± 0.049 | 0.012 ± 0.0099 | 0.012 ± 0.033 | -0.021 ± 0.055 | 0.007 ± 0.016 | 0.0135 ± 0.0021 | 0.008 | -0.0005 ± 0.028 | 0.001 ± 0.03 | 0.039 ± 0.051 | 0.014 ± 0.023 | 0 ± 0.014 | -0.005 ± 0.0057 | 0.0085 ± 0.0092 | 0.016 ± 0.016 | 0.015 | 0.0095 ± 0.0078 | 0.0045 ± 0.0035 | 0.0065 ± 0.043 | 0.0005 ± 0.03 | 0.01 ± 0.028 | 0.0115 ± 0.0064 | 0.0095 ± 0.052 |
